Results are given in words; binding and its absence hold for the method and conditions named. In cells and extracts the contact can be indirect. A result given as binding can be weak or reduced; the word gives no strength.
Target: Human TRPC3 (eYFP-hTRPC3) (human) (UniProt Q13507)
Assay: FRET or BRET; acceptor photobleaching FRET (mCherry bleached in ROIs, eYFP read) by confocal microscopy in HEK-TLR4 cells co-expressing TRPC3-eYFP and a PKC-mCherry, treated with PMA for 10 min; positive control eYFP-mCherry fusion, negative control eYFP and mCherry co-expressed separately

Amino acid sequences for entries named in this document (tags omitted). A change or cut given only in a name is not applied to a line headed by its entry.
UniProt Q13507: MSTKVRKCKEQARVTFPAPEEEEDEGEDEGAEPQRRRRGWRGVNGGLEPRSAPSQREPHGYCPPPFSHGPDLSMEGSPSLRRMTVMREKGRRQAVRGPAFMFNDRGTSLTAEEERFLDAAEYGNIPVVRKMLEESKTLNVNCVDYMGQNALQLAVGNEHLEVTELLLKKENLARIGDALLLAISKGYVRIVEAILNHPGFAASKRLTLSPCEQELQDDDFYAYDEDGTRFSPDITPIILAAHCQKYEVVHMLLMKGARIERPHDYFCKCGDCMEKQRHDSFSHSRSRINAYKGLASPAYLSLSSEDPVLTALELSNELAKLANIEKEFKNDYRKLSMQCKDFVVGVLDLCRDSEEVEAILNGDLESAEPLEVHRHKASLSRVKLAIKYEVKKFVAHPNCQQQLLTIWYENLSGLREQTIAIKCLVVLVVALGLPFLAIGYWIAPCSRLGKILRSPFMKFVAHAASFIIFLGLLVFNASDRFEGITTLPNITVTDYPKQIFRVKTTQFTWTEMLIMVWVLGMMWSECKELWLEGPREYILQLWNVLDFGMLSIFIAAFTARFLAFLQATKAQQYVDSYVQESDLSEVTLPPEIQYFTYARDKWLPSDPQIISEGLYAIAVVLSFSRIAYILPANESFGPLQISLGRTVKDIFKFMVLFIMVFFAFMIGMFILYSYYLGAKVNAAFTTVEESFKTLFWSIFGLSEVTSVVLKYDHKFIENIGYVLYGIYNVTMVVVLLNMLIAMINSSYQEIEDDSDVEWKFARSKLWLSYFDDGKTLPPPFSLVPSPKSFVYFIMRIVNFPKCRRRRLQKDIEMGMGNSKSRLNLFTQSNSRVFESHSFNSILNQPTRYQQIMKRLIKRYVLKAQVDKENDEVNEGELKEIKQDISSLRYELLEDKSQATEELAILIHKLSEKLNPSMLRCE
UniProt Q02156: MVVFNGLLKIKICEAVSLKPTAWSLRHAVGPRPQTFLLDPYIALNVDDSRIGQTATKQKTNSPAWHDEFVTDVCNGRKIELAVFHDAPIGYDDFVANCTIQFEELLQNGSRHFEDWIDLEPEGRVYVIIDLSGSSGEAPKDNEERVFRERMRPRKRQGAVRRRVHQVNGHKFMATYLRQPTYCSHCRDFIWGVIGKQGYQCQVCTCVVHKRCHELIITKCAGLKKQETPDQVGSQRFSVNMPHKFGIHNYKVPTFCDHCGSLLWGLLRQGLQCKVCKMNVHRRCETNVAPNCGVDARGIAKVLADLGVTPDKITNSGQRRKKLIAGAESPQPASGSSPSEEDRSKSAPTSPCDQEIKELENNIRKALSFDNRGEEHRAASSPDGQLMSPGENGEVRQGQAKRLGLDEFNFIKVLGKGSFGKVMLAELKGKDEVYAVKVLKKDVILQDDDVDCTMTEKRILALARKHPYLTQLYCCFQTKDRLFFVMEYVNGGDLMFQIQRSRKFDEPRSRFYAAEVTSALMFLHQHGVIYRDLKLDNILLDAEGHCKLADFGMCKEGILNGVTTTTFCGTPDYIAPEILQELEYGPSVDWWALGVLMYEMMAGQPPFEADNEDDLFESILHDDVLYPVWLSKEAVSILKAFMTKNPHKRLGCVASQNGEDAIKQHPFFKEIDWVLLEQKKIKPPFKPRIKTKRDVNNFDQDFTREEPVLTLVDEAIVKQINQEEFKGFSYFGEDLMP

Substance	binding
PKCϵ-mCherry (from UniProt Q02156 1-737) (enzyme)	binds
PKCα-mCherry (from UniProt P17252 1-672) (enzyme)	binds

From publication PMC12847318
